# At least one structure is not confirmed: it was looked up by name or label, or the drawing left a doubt.
# Legend:
# rabbit illiac arteries [1] = assay: Example 1: stents implanted in rabbit iliac arteries for 28 days, histomorphic and histopathologic analyses; assay type: in vivo; details: sirolimus = Atrium Flyer stents coated with sirolimus, Cypher = commercial stent
# Experimental: The Atrium Flyer is compared with bare metal stents, the Atrium Flyer coated with ALPHA-3 without drugs, and Cypher™ drug eluting stent. Histomorphic and histopathologic analyses are then performed.
# rabbit illiac arteries [2] = assay: Example 2: drug-loaded Atrium Flyer stents vs Taxus Express in rabbit iliac arteries for 28 days, histomorphic and histopathologic analyses; assay type: in vivo; details: Atrium high dose stents, compared with Taxus Express
# Experimental: Histomorphic and histopathologic analyses are then performed.
smiles,measurement,setting,value
"CO[C@H]1C[C@@H]2CC[C@@H](C)[C@@](O)(O2)C(=O)C(=O)N2CCCC[C@H]2C(=O)O[C@H]([C@H](C)C[C@@H]2CC[C@@H](O)[C@H](OC)C2)CC(=O)[C@H](C)/C=C(\C)[C@@H](O)[C@@H](OC)C(=O)[C@H](C)C[C@H](C)/C=C/C=C/C=C/1C [Sirolimus, Sirolimus (rapamycin)]",neointimal growth (in words),rabbit illiac arteries [1],significantly reduce neoinimal growth
same,in-stent neointimal growth (in words),rabbit illiac arteries [2],suppresses in-stent neointimal growth

# Reference: patent publication US20100004738A1, “DRUG DELIVERY COATING FOR USE WITH A MEDICAL DEVICE AND METHODS OF TREATING VASCULAR INJURY” (ATRIUM MEDICAL CORPORATION, priority 2005, published 2010)
